Laboratory results published in paper PMC11212424.
No constants are given. Whether binding was seen depends on the method and setting. Binding seen in cells or lysates may run through a third protein. Here binding means that the protein was enriched with, or labelled near, the bait; the list need not be complete. Tags and fused reporters may be left off the sequences shown.

Sequences of proteins named here, by UniProt entry; tags and fusion partners are left off.
UniProt Q2EJA0: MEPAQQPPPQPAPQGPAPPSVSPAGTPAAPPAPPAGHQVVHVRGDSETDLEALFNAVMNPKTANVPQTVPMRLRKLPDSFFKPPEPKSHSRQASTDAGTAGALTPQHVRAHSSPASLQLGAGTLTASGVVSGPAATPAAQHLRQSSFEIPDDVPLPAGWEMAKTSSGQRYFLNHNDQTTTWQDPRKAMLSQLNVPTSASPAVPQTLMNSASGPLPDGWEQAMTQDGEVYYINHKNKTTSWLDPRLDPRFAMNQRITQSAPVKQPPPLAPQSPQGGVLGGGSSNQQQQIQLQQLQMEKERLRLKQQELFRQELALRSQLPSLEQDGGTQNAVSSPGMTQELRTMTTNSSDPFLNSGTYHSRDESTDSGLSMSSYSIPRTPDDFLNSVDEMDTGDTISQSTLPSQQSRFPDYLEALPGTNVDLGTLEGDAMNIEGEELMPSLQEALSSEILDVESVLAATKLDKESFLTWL

Target: T1, Flag-Tudor-SN (Tudor staphylococcal nuclease) (UniProt Q66X93)
T1 sequence: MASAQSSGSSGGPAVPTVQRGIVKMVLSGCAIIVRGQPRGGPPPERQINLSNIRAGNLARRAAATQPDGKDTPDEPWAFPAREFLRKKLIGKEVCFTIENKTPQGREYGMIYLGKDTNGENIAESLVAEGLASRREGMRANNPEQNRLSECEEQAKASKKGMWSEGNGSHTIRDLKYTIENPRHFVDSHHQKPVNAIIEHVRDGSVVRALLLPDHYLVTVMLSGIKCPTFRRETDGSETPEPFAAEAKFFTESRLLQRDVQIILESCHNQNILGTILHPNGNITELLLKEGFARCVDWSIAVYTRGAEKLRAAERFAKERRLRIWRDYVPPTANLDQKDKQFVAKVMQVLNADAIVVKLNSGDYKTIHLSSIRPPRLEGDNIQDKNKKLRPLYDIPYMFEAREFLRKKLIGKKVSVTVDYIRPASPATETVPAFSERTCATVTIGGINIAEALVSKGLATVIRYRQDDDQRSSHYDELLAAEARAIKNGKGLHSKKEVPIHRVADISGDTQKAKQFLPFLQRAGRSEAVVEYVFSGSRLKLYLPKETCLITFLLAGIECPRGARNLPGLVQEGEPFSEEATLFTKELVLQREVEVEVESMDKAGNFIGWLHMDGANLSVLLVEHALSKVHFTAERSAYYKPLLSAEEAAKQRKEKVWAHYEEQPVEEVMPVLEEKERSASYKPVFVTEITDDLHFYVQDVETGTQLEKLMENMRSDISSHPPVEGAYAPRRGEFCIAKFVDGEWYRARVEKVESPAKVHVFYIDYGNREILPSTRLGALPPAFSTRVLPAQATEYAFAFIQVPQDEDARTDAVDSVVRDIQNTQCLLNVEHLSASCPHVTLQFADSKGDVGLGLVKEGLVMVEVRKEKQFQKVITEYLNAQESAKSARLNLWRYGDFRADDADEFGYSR
Test: affinity purification with mass spectrometry; lysates of H9c2 cells stably expressing Flag-Tudor-SN (Flag-vector as control) on anti-Flag agarose beads, eluted, SDS-PAGE with silver staining, bands cut out and read by LC-MS/MS

binding: binds
Substance: Yes-associated protein (YAP), endogenous in H9c2 cells (from UniProt Q2EJA0 1-469)
